Measurements: the supplement of paper PMC6411743
± gives the standard deviation of the averaged measurements. The list shows a part of the results, in another mix than the full data.

By UniProt entry, the sequences of proteins in these tests, tags left out. Where a name states a change or a piece, a line headed by the entry shows the natural chain unless it says otherwise.
UniProt Q5T447: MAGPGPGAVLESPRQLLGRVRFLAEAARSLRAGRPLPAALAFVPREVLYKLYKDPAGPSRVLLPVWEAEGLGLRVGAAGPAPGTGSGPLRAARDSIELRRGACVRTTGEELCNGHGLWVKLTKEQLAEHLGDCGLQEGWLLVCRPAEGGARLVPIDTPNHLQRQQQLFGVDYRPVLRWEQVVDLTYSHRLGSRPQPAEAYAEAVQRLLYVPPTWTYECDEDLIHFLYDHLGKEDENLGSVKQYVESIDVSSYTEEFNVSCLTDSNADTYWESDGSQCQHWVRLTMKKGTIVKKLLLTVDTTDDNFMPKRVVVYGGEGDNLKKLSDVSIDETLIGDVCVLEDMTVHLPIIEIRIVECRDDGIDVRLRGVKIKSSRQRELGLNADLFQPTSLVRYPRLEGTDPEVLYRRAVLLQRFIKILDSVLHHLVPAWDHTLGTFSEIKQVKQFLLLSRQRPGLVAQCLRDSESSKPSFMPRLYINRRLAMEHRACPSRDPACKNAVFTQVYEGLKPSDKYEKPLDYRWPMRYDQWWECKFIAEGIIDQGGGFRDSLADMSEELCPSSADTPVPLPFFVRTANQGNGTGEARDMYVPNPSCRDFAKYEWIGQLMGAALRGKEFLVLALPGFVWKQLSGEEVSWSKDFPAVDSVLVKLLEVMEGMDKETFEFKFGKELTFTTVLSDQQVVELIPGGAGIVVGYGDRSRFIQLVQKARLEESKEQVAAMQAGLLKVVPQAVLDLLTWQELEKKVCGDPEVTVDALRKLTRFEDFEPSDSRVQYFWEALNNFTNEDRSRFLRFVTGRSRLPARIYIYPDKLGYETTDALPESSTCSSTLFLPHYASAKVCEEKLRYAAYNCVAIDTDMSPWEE
UniProt Q6NUK1: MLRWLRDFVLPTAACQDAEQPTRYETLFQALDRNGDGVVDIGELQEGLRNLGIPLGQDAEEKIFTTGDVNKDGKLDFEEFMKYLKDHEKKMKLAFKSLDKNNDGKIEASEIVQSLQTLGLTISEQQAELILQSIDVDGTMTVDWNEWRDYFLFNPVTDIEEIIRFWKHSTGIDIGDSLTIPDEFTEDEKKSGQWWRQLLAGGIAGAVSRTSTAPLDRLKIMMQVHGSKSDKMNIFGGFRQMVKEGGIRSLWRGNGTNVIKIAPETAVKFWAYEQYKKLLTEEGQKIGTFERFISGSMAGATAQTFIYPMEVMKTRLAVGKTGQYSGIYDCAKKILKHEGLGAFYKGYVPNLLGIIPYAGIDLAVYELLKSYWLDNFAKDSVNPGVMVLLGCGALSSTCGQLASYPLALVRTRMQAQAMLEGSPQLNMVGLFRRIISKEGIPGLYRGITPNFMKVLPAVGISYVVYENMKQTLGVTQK
UniProt Q9NZJ6: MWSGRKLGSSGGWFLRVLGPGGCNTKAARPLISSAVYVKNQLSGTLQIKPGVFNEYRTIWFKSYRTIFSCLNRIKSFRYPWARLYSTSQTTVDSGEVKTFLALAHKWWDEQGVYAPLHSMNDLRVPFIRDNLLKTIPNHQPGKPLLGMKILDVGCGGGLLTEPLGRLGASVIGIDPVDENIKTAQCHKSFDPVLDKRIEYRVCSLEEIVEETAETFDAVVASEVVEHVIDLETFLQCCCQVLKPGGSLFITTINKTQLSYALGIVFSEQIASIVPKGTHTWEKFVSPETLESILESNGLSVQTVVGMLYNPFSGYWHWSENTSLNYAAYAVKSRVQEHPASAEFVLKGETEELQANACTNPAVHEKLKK
UniProt Q6P3S1: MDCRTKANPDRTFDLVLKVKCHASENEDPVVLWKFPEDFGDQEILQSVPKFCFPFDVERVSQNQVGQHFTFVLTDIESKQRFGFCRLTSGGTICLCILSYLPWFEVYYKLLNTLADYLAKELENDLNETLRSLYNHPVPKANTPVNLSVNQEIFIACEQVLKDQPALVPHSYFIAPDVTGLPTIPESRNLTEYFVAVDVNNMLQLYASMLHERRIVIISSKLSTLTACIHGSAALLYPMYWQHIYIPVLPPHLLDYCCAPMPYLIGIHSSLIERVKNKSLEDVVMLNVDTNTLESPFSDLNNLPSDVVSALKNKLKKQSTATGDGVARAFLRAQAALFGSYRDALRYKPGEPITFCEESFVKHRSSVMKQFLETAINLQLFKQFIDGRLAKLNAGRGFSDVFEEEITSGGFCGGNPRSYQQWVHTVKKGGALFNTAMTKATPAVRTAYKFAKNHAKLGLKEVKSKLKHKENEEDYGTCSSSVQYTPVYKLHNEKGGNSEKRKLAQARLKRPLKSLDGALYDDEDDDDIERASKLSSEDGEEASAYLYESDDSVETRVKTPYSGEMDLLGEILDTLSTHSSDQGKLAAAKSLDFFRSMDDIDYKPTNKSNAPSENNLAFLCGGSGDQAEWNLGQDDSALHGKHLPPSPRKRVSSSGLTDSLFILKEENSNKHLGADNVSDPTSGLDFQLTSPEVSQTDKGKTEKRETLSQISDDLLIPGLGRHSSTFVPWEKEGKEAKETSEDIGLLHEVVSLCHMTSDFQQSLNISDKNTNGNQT
UniProt Q92598: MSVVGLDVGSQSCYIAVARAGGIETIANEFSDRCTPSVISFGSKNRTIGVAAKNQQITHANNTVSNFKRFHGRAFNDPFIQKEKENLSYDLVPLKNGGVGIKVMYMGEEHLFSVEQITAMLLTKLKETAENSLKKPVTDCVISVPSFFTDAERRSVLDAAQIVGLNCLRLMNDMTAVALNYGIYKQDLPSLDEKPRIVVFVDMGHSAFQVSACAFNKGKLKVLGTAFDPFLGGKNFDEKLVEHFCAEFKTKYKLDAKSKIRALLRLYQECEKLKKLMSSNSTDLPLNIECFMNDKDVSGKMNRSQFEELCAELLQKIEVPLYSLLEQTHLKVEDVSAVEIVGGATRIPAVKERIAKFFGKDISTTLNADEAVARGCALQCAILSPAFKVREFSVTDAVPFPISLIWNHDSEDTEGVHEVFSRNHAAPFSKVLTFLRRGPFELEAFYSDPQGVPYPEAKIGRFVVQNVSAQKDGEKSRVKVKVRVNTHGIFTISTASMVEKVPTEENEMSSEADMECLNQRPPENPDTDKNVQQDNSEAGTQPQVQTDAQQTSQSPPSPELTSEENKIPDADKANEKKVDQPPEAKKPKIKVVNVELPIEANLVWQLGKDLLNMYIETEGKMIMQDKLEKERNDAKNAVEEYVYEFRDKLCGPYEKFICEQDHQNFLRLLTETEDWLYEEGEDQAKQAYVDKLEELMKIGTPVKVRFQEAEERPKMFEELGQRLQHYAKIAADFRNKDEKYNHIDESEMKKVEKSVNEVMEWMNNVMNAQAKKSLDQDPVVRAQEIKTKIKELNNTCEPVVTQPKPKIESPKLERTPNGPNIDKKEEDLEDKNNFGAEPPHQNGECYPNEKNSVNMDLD
UniProt Q6NS38: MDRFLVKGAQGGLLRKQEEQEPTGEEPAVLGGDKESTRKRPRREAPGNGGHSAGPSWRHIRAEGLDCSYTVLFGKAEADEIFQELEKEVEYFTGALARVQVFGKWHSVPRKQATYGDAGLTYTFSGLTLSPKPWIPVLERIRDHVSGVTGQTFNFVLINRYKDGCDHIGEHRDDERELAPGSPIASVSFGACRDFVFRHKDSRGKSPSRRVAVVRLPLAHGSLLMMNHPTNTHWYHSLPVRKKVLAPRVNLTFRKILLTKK
UniProt Q5JSP0: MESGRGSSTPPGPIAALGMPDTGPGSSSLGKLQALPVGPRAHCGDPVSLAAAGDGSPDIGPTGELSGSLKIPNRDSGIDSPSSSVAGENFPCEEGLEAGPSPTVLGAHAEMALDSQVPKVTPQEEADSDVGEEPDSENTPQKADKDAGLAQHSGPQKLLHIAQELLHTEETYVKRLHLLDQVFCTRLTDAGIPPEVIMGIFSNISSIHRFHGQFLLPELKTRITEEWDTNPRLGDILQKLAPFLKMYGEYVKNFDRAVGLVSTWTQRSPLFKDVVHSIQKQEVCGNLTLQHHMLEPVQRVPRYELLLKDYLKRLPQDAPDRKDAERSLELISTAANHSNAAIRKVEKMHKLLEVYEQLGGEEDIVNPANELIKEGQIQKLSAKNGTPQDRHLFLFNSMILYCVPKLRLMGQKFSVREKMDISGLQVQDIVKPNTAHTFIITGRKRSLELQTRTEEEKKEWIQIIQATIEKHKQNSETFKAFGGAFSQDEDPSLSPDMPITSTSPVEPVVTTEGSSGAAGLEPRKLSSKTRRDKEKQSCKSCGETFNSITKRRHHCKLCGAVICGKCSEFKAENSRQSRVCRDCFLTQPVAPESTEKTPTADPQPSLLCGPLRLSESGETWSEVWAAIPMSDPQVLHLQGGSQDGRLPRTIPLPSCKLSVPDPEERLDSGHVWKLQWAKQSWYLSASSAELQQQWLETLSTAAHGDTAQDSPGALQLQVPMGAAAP
UniProt Q6NXE6: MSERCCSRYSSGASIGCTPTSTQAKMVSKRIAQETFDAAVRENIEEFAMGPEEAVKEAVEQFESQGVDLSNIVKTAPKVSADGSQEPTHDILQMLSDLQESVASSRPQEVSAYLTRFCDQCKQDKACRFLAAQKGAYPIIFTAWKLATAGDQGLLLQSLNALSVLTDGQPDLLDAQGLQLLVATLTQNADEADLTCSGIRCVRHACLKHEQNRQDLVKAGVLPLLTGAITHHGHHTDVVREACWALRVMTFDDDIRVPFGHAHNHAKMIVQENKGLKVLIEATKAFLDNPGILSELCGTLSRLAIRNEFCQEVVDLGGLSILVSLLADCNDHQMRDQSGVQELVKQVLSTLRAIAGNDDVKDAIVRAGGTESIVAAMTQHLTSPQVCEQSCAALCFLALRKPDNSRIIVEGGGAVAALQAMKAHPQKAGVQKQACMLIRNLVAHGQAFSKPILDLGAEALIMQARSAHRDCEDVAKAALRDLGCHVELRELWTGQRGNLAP
UniProt Q5T5X7: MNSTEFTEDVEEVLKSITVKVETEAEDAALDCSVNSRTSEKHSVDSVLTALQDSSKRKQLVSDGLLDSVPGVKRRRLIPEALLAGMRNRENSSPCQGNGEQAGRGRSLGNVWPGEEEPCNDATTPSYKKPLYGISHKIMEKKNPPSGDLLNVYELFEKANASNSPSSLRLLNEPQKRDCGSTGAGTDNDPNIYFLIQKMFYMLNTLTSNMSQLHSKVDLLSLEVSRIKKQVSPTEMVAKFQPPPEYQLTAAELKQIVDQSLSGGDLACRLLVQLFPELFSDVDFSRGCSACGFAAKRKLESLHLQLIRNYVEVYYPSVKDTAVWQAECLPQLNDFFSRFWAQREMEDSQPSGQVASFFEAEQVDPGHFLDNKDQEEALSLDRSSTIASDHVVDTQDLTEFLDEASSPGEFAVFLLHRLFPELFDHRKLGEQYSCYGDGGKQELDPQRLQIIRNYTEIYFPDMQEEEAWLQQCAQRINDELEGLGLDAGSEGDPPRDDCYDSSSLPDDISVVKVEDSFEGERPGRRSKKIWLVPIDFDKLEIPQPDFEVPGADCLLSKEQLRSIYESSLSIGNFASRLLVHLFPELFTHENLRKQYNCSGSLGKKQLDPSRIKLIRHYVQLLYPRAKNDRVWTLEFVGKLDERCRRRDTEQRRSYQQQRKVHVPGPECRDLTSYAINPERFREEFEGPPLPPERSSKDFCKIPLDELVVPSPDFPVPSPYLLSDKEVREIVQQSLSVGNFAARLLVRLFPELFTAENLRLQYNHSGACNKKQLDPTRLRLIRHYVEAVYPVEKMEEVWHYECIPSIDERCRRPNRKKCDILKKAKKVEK
UniProt Q4KMP7: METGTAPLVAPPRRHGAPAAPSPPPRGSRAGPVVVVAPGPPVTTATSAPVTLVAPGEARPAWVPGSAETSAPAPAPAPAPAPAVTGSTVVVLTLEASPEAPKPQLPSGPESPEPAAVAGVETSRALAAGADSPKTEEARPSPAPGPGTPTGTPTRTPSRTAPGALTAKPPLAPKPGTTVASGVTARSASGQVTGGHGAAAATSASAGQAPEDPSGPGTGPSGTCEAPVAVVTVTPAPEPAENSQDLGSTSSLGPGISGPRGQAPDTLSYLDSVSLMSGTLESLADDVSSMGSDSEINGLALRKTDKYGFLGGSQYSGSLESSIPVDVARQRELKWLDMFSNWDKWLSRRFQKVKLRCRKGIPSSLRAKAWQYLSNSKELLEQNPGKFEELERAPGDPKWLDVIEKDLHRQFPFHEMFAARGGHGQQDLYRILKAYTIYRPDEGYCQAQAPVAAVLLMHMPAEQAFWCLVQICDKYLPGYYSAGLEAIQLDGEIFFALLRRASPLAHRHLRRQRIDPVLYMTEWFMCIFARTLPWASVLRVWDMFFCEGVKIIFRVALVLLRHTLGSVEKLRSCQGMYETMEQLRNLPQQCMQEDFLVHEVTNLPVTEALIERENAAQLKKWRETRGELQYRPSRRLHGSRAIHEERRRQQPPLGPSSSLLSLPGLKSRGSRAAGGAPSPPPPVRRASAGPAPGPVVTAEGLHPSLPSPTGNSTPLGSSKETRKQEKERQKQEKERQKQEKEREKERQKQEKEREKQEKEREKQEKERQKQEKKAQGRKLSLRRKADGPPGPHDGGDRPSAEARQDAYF

Compound: Nc1ncnc2c1ncn2[C@@H]1O[C@H](COP(=O)(O)OP(=O)(O)OP(=O)(O)O)[C@@H](O)[C@H]1O [adenosine triphosphate]
Assay: NP40-soluble protein abundance relative to vehicle (solubility fold change) (ratio); higher = more soluble protein in presence of ATP
Procedure, shortened: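 Crude Jurkat lysate, prepared by Dounce homogenisation, was exposed to eight concentrations from 0.1 to 10 mM for 10 min at room temperature and then 3 min at 37 °C. Solubilisation used 0.8% NP40 with benzonase for 60 min at 4 °C, followed by ultracentrifugation and TMT labelling of the supernatant for LC-MS/MS. After vsn normalisation of intensities, each value is the fold change against the detergent-processed vehicle within each replicate, across three independent experiments.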

Target	NP40-soluble protein abundance (concentration: 1mM)	NP40-soluble protein abundance (concentration: 2mM)	NP40-soluble protein abundance (concentration: 4mM)	NP40-soluble protein abundance (concentration: 6mM)	NP40-soluble protein abundance (concentration: 8mM)	NP40-soluble protein abundance (concentration: 10mM)
HECTD3 (UniProt Q5T447)	1.04 ± 0.069	1.01 ± 0.052	1.02 ± 0.036	0.962 ± 0.019	1.02 ± 0.017	1.02 ± 0.06
SLC25A24 (UniProt Q6NUK1)	0.843 ± 0.1	0.894 ± 0.13	0.86 ± 0.08	0.829 ± 0.12	0.808 ± 0.08	0.881 ± 0.1
Q5T063 and related entries (UniProt Q9NZJ6)	1.027 ± 0.0033	1.08 ± 0.089	1.06 ± 0.051	1.08 ± 0.066	1.06 ± 0.038	1 ± 0.08
CMPK2 (UniProt Q5EBM0)	1.03 ± 0.05	1.04 ± 0.059	1.02 ± 0.048	0.978 ± 0.07	1 ± 0.057	0.994 ± 0.044
SLC27A4 (UniProt Q6P1M0)	1.04 ± 0.03	1.08 ± 0.068	1.09 ± 0.025	1.09 ± 0.066	1.1 ± 0.027	1.12 ± 0.078
DENND1B (UniProt Q6P3S1)	0.994 ± 0.06	0.971 ± 0.041	0.966 ± 0.021	0.956 ± 0.06	0.962 ± 0.018	0.98 ± 0.062
NIPBL (UniProt Q6KC79)	1.12 ± 0.023	1.121 ± 0.0094	1.158 ± 0.011	1.19 ± 0.007	1.184 ± 0.0095	1.188 ± 0.0065
UniProt Q6P4E1 and related entries	0.944 ± 0.12	0.888 ± 0.056	0.911 ± 0.042	0.9 ± 0.094	0.87 ± 0.018	0.762 ± 0.11
Q5TBM3 and related entries (UniProt Q92598)	0.933 ± 0.08	0.973 ± 0.013	0.897 ± 0.087	1.01 ± 0.052	0.938 ± 0.037	0.931 ± 0.056
ALKBH2 (UniProt Q6NS38)	1.04 ± 0.061	1.11 ± 0.075	1.09 ± 0.098	1.13 ± 0.12	1.12 ± 0.18	1.19 ± 0.13
UniProt Q5JSP0 and related entries	0.986 ± 0.043	0.973 ± 0.018	0.973 ± 0.017	0.976 ± 0.012	0.953 ± 0.014	0.949 ± 0.01
MRPL14 (UniProt Q6P1L8)	1.03 ± 0.018	1.03 ± 0.069	0.95 ± 0.054	0.929 ± 0.063	0.973 ± 0.042	0.975 ± 0.064
UniProt Q6NXE6 and related entries	0.923 ± 0.013	0.938 ± 0.024	0.909 ± 0.032	0.877 ± 0.025	0.905 ± 0.013	0.901 ± 0.028
BEND3 (UniProt Q5T5X7)	0.998 ± 0.019	0.972 ± 0.037	0.999 ± 0.036	1.01 ± 0.015	1.003 ± 0.0084	0.997 ± 0.043
UniProt Q5TDH0 and related entries	0.975 ± 0.014	0.967 ± 0.036	0.9594 ± 0.0062	0.958 ± 0.051	0.968 ± 0.044	0.956 ± 0.044
TBC1D10B (UniProt Q4KMP7)	1.02 ± 0.04	1.02 ± 0.062	1.04 ± 0.041	1.04 ± 0.076	0.997 ± 0.049	1.04 ± 0.018
CWF19L1 (UniProt Q69YN2)	0.968 ± 0.044	0.965 ± 0.016	0.973 ± 0.024	0.945 ± 0.07	0.953 ± 0.027	0.9744 ± 0.0095

Single records, as listed above. Order of values: NP40-soluble protein abundance (concentration: 1mM)	NP40-soluble protein abundance (concentration: 2mM)	NP40-soluble protein abundance (concentration: 4mM)	NP40-soluble protein abundance (concentration: 6mM)	NP40-soluble protein abundance (concentration: 8mM)	NP40-soluble protein abundance (concentration: 10mM)
BEND3 (UniProt Q5T5X7) is entered as 0.998 ± 0.019	0.972 ± 0.037	0.999 ± 0.036	1.01 ± 0.015	1.003 ± 0.0084	0.997 ± 0.043
HECTD3 (UniProt Q5T447) is entered as 1.04 ± 0.069	1.01 ± 0.052	1.02 ± 0.036	0.962 ± 0.019	1.02 ± 0.017	1.02 ± 0.06
